Assay results: patent publication US20090022717A1
Results are given in words; binding and its absence hold for the method and conditions named. Some entries that bind do so weakly or less than the wild type.

Molecular target: monoclonal antibody 6E10
Test: peptide competition of antibody staining of CXCR7-expressing cells, FACS

binding: binds
B1: SEQ ID NO 15 (peptide)
peptide: SWPCNSSDCIV
